From patent publication US20040022744A1, “Method of treating dental caries and remineralizing lesions” (priority 2001, published 2004)

Experiment: 1H NMR evaluation of oxidative consumption of salivary biomolecules by ozone
Details: unstimulated human saliva 0.60 ml, O3 for 30 seconds, 1H NMR 600 MHz

O=[O+][O-] [ozone]
effect of O3 treatment on salivary 3-D-hydroxybutyrate: evidence for the O3-mediated oxidation of salivary 3-D-hydroxybutyrate
effect of O3 treatment on salivary methionine: oxidation of the volatile sulphur compound precursor methionine to its corresponding sulphoxide
effect of O3 treatment on salivary polyunsaturated fatty acids: oxidative consumption of salivary polyunsaturated fatty acids
effect of O3 treatment on salivary pyruvate: oxidative decarboxylation of the salivary electron-donor pyruvate
